According to PubChem BioAssay AID588590 (National Center for Advancing Translational Sciences (NCATS), 2011):
Out of some 390,000 compounds screened, about 4,000 (1%) were called active. The inconclusive results got no clear call from the source; some entries with a clear call stand among them for comparison. Calls come from the whole dose curve; as a rule, active = well fitted inhibition curve with a large enough effect; inconclusive = small, poorly fitted or top-dose-only effect, or another doubt; inactive = no such curve, though single readings can be large or run the other way. Potencies of inconclusive entries are doubtful fits and often do not repeat.

Amino acid sequences for entries named in this document (tags omitted). A change or cut given only in a name is not applied to a line headed by its entry.
UniProt Q9UNA4: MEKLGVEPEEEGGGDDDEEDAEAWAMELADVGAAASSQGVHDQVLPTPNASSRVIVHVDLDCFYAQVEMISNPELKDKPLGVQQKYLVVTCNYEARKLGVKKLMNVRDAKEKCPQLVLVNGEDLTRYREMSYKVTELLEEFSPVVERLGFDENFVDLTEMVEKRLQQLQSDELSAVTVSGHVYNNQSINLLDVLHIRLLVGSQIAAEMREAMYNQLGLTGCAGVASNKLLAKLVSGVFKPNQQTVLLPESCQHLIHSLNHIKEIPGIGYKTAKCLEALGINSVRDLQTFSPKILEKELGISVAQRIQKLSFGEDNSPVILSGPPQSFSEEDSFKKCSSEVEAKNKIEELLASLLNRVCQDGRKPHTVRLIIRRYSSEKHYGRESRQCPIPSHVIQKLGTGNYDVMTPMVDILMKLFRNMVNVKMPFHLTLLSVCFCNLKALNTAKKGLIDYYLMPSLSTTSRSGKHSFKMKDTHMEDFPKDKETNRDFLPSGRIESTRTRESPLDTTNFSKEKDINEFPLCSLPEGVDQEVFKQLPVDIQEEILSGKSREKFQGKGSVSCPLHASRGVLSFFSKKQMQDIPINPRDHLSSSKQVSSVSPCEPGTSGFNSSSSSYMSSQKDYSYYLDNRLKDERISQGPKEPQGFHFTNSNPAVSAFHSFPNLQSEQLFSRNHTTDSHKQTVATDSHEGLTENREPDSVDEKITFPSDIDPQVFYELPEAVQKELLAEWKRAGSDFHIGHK

These molecules were tested against DNA polymerase iota (Homo sapiens) (UniProt Q9UNA4) (assay: qHTS for Inhibitors of Polymerase Iota). Conditions: Pol iota fluorescent replication assay, 10 min; series mostly up to 115 µM; activity, negative = inhibition: at the top concentration.
How it was run: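 Fluorescent replication assay read twice, at 0 min and 10 min after adding 50 nM (final) substrate. Enzyme (10 nM) and compounds were first incubated 15 min at room temperature; enzyme-free buffer wells were negative controls.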
Potency is the fitted concentration of half-maximal effect.

Potency, active:
O=C1CCCC2=C1C(c1ccc(O)c(O)c1)Nc1ccc3ccccc3c12 (configuration not stated) 79.4 µM

Potency, inconclusive:
Cc1ccc(C)c(N2CCN(c3ccc(NC(=O)c4cccs4)cc3C(=O)O)CC2)c1 79.4 µM [inhibitor, single point]
Cc1cc(C)n2c3c(c(C#N)c2n1)CCCC3 35.5 µM [inhibitor, partial curve, poor fit]
Cc1cc2nc(C3CCCN(C(=S)Nc4ccccc4C)C3)[nH]c2cc1C (configuration not stated) 89.1 µM [inhibitor, partial curve, poor fit]
CCc1ccc(C(=O)CSc2ncn[nH]2)cc1 25.1 µM [inhibitor, partial curve, poor fit]
Cc1ccc(C2C(C(=O)c3cc4ccccc4o3)=C(O)C(=O)N2CCN2CCOCC2)o1 (configuration not stated) 39.8 µM [inhibitor, partial curve, poor fit]
COCCNC(=O)c1c(N)n(CCCn2ccnc2)c2nc3ccccc3nc12 3.16 µM [inhibitor, partial curve, poor fit]
COc1ccc(C(=O)COC(=O)c2n[nH]c3ccccc23)c(OC)c1 22.4 µM [inhibitor, full curve]
Nc1cc(C(=O)N2CCN(c3ccc([N+](=O)[O-])cc3)CC2)ccc1N1CC2CC(C1)c1cccc(=O)n1C2 (configuration not stated) 35.5 µM [inhibitor, partial curve]
CN(C)c1ccc(C(CNC(=O)c2ccc(F)cc2)c2c[nH]c3ccccc23)cc1 (configuration not stated) 25.1 µM [inhibitor, partial curve, poor fit]
Cc1c(Cl)c([N+](=O)[O-])nn1CCCC(=O)Nc1sc2c(c1C#N)CCC2 22.4 µM [inhibitor, single point]
CCOc1cc(/C=C2\N=C(SC)SC2=O)cc([N+](=O)[O-])c1OC(C)=O 17.8 µM [inhibitor, partial curve, poor fit]
O=C(CSc1ccc(Cl)cc1)NC(=O)NCc1ccco1 20 µM [inhibitor, partial curve, poor fit]
COc1ccc(N(C(=O)c2snc(C(N)=O)c2N)C(C(=O)NC2CCCCC2)c2ccc(F)cc2)c(OC)c1 (configuration not stated) 35.5 µM [inhibitor, single point]
CCOC(=O)c1cc2sc(C)cc2n1CC(=O)Nc1ccc2c(c1)OCCO2 35.5 µM [inhibitor, full curve]
N=c1sccn1CC(=O)Nc1ccc(S(=O)(=O)N2CCOCC2)cc1 3.16 µM [inhibitor, single point]
c1ccc(Cn2ncc3c(NCc4ccco4)ncnc32)cc1 35.5 µM [inhibitor, full curve, poor fit]
COc1ccc(/C=N/NC(=O)COc2cccc3cccnc23)cc1OC 17.8 µM [inhibitor, full curve, poor fit]
CC(C)(C)C(=O)Nc1sc2c(c1C#N)CCN(Cc1ccccc1)C2 35.5 µM [inhibitor, single point]
Oc1ccc(Nc2nc(N3CCCC3)c3ccccc3n2)cc1 14.1 µM [inhibitor, full curve, poor fit]
O=C(O)CCC(=O)Nc1sc2c(c1C(=O)Nc1cccc3ccccc13)CCCCC2 56.2 µM [inhibitor, partial curve, poor fit]
CCCn1c(N2CCN(CC(=O)Nc3ccc4c(c3)OCCO4)CC2)nc2ccccc21 3.16 µM [inhibitor, partial curve, poor fit]
COc1cccc(C(=O)NC2(C(F)(F)F)N=C3SCCN3C2=O)c1 (configuration not stated) 39.8 µM [inhibitor, single point]
COc1ccc(N2CCN(C(=O)c3ccc(CS(=O)(=O)c4ccc(Br)cc4)o3)CC2)cc1 89.1 µM [inhibitor, single point]
O=C(Oc1ccccc1C(=S)N1CCCCC1)c1cc([N+](=O)[O-])cc([N+](=O)[O-])c1 25.1 µM [inhibitor, single point]
CC(=O)C1=C(C)NC(SCC(=O)c2cc(Cl)ccc2Cl)=C(C#N)C1c1ccco1 (configuration not stated) 31.6 µM [inhibitor, single point]
COCCCNC(=O)CSc1c2c(nc3ccc(Cl)cc13)CCCC2 100 µM [inhibitor, partial curve, poor fit]
N[C@@H](Cc1ccc(O)cc1)c1nnc([C@H](CC(=O)O)NC(=O)C2CCNCC2)o1 44.7 µM [inhibitor, single point]
Cc1cccc(N2C(=O)CSC23C(=O)N(Cc2cccc(C(F)(F)F)c2)c2ccccc23)c1 (configuration not stated) 89.1 µM [inhibitor, single point]

A draw from above in order of heavy-atom count, largest number first.
Potency, inconclusive:
CCCn1c(N2CCN(CC(=O)Nc3ccc4c(c3)OCCO4)CC2)nc2ccccc21 3.16 µM [inhibitor, partial curve, poor fit]
Cc1cc2nc(C3CCCN(C(=S)Nc4ccccc4C)C3)[nH]c2cc1C (configuration not stated) 89.1 µM [inhibitor, partial curve, poor fit]
CCOc1cc(/C=C2\N=C(SC)SC2=O)cc([N+](=O)[O-])c1OC(C)=O 17.8 µM [inhibitor, partial curve, poor fit]

Following part.

activity, negative = inhibition, inactive:
Cc1ccc(NCC(O)Cn2cnc3c2c(=O)n(C)c(=O)n3C)cc1 (configuration not stated) 195%
N#Cc1c(-c2ccccc2)[nH]c(=O)[nH]c1=O 25.3%
CC(C)(C)C1CCc2oc3ccc(NS(=O)(=O)c4cc(Cl)ccc4Cl)cc3c2C1 (configuration not stated) -7.96%
Cc1cc(C)c2sc(N(Cc3cccnc3)C(=O)CCS(=O)(=O)c3ccccc3)nc2c1 17.6%
CCOC(=O)c1c(NC(C)=O)sc2c(O)cccc12 27.7%
Cc1ccc(N2CC(C)Cn3c2nc2c3c(=O)n(CC(=O)O)c(=O)n2C)cc1 (configuration not stated) -7.5%
C=Cc1ccc(CSc2nc(-c3ccccc3Cl)nc3c2Cc2c(CO)cnc(C)c2O3)cc1 17.1%
CC(=O)c1ccc(NC(=O)CSc2nc3[nH]c(=O)cc(O)c3s2)cc1 68.3%
O=C(CSc1nnc2c3ccccc3c3ccccc3c2n1)Nc1ccccc1F -15.9%
CNC(=O)/C(C#N)=C/c1ccc(-c2ccc(OC)cc2[N+](=O)[O-])o1 21.6%
Cc1cc(C(=O)CCC(=O)NC(C)c2ccc(S(N)(=O)=O)cc2)c(C)s1 (configuration not stated) 20.2%
COc1ccc(C)cc1S(=O)(=O)N1CCOCC1 89.5%
Cc1ccc(/C=N/n2c(C3CCCCC3)n[nH]c2=S)cc1 123%
